# Reference: US11723947B2, “Anti-senescence compounds and uses thereof” (Erasmus University Medical Center Rotterdam, priority 2015, dated 2023)
# At least one peptide structure holds a part that was inferred or is arguable (an end, a ring closure or a residue). Square brackets hold non-standard residues; d marks the D form. Ends that are not written are not given here.
# Experiments:
# [1] = tested on: Senescent and control IMR90
# Method: The selectivity index (S.I.) for the EC50 values was determined after […] (GraphPad Prism) of the curves. […] Real-time cell density was measured using an xCELLigence detection system (ACEA Biosciences). Prior to the start of the measurement 50 μL DMEM 10% FCS was added to each well of an E-plate view 16 (Roche) to determine background signal. Non-senescent (2000 cells per well) and senescent (5000 cells/well) IMR90 fibroblasts were then plated in 150 μl medium. 16 hours later the E-plate was placed in the xCELLigence reader and the cell density was recorded every 30 minutes. […] Measurements continued for the indicated time-points. […] Experiment as in FIG. 2C, but with the indicated peptides. […] Cells were plated in 4-well Poly-L-Lysine coated glass bottom 35 mm dishes (D141410; Matsumi, Japan) and incubated with NucView488 Caspase-3 (4440; Essen Bioscience). […] 8h after addition the real-time imaging was initiated and every 30 min a grid of 3×3 pictures was imaged. […] After 6 days cell viability was determined as in FIG. 2C). […] Right: Similar experiment as in the left panel, except viability measured one day earlier. […]
# A) Control IMR90 and IMR90 induced to senesce through 10Gy IR were plated in triplicate for each condition in a 96-well plate. […] After 6 days viability was determined through AqeousOne celltiter assay (Promega) according to the manufacturer's instructions. […]
# (§1) 5000 senescent (obtained as described above) and 2000 non-senescent IMR90 fibroblasts were plated in 96-well plates incubated with concentrations of NQDI between 0-20 μM and after 6 days cell viability was determined by AqueousOne CellTiter (MTT) assay according to the manufacturer's instructions.
# as §1, with “R406, ranging from 16, 32, 64 to 128 nM” for “NQDI between 0-20 μM”, “instructions. […]” for “instructions.”
# Caspase-3/7 = experiment: Real-time imaging of Caspase-3/7 activation (NucView488) in IMR90; assay type: cell-based, human; conditions: 25 μM, senescent vs control IMR90
# [2] = tested on: fast aging Xpd^TTD/TTD mice; experiment: Healthspan, organ function and blood parameters of fast aging Xpd^TTD/TTD and wildtype mice; assay type: in vivo, mouse
# Doxorubicin-treated mice = experiment: Doxorubicin-treated mice: liver sections, body weight, plasma ASAT and Amylase; assay type: in vivo; conditions: for ASAT in plasma (liver toxicity) / Amylase in plasma (pancreas toxicity): Doxorubicin-treated mice
# Method: IMR90 cells were exposed twice to 0.5 μM Doxorubicin with one day in between. SA-β-GAL activity was determined 7 days later. […] Mice were i.p. injected with 10 mg/kg Doxorubicin and analyzed for RLUC on the indicated time-points. Changes in RLUC intensity for 5 animals are plotted for the indicated timepoints after injection. […] Mice treated as indicated in FIG. 4F were analyzed for Bioluminescence. […] Liver sections from the experiment in FIG. 4I were stained for IL-6. […] The ratio was plotted. […] Experiment as in FIG. 4H. n=3 animals per group.
# [3] = 26 w Xpd^TTD/TTD mice, 5 mg/kg i.v. day 0, 2 and 4, 28 d
# [4] = Xpd^TTD/TTD mice, 10 mg/kg i.v. days 3, 4, 5 and 6
# [5] = Xpd^TTD/TTD mice, 4× 10 mg/kg i.v., 10 mg/kg
substance,measurement,setting,value
[dL][dT][dL][dR][dK][dE][dP][dA][dS][dE][dI][dA][dQ][dS][dI][dL][dE][dA][dY][dS][dQ][dN]G[dW][dA][dN][dR][dR][dS]GG[dK][dR][dP][dP][dP][dR][dR][dR][dQ][dR][dR][dK][dK][dR]G [FOXO4 DRI],killing/clearing of senescent cells,"[1]; 3× at ⅓, 3 days in between, senescence by IR",efficient in clearing senescent cells
same,"selectivity at the EC75, intermittent vs single dose",[1]; 3×⅓ dose (one day in between) vs 1×1,higher when 3×⅓ was administered than 1×1
same,selectivity at EC70 and EC50,"[1]; 3×⅓ of doses 2 d apart, senescence by 2×0.5 uM Doxorubicin","shows a high selectivity at EC70 and EC50 for clearing senescent, but not non-senescent cells"
same,Caspase-3/7 activation in time,Caspase-3/7,"selectively induces Caspase-3/7 activation in time in senescent, but not control, IMR90 cells"
same,change in plasma [Urea],[2]; [3],showed a decrease in plasma [Urea] indicating an improvement in renal function
same,renal glomerulosclerosis score (PAS),[2]; [3],reduces spontaneously occurring renal glomerulosclerosis
same,hair loss (change in fur score),"[2]; Xpd^TTD/TTD mice, 5 mg/kg i.v. day 0, 2 and 4",counters hair loss of Xpd^TTD/TTD mice
same,running behavior,[2]; [4],showed a transient and reproducible increase in running behavior close to wildtype levels
same,weight loss,[2]; [4],unhealthy weight loss of these mice was compensated
same,"kyphosis (curvature of the spine, CT)",[2]; [5],lowered the curvature of the spine
same,muscle mass (CT),[2]; [5],increased the muscle mass
same,muscle mass (CT),"[2]; Xpd^TTD/TTD mice, 4× 10 mg/kg i.v., listed as FOXO4 DRI peptide, 10 mg/kg",muscle mass increase
same,% change in body weight,"[2]; Xpd^TTD/TTD vs wildtype mice, 5 mg/kg i.v. day 0, 2 and 4",improves the body weight specifically in the fast aging Xpd^TTD/TTD mice
same,running wheel behavior,"[2]; Xpd^TTD/TTD vs wildtype, 5 mg/kg i.v. day 0, 2 and 4","inducing an improvement in running wheel behavior of an Xpd^TTD/TTD, but not wildtype mouse"
same,ASAT in plasma (liver toxicity),Doxorubicin-treated mice,counteracts Doxorubicin-induced toxicity of the liver (ASAT)
same,Amylase in plasma (pancreas toxicity),Doxorubicin-treated mice,counteracts Doxorubicin-induced toxicity of the liver (ASAT) and pancreas (Amylase)
same,ASAT in plasma (liver toxicity),Doxorubicin-treated mice; listed as FOXO4 DRI peptide,reduced values of ASAT and amylase
same,Amylase in plasma (pancreas toxicity),Doxorubicin-treated mice; listed as FOXO4 DRI peptide,reduced values of ASAT and amylase
same,Doxorubicin-induced loss in total body weight,"Doxorubicin-treated mice; two doses Doxorubicin 10 mg/kg i.p., then 3×5 mg/kg",represses Doxorubicin-induced loss in total body weight
same,number of FOXO4 foci in hepatocytes (liver sections),"Doxorubicin-treated mice; two doses Doxorubicin 10 mg/kg i.p., then 3×5 mg/kg, 14 d later",reduces the number of FOXO4 foci after Doxorubicin-treatment in vivo
